These are yes or no findings as the source states them, for the method shown. In cells and extracts the contact can be indirect. These calls come from enrichment with a bait or labelling near it, and not all partners need be listed. Tags and fused reporters may be left off the sequences shown.

Amino acid sequences for entries named in this document (tags omitted).
UniProt Q969F8: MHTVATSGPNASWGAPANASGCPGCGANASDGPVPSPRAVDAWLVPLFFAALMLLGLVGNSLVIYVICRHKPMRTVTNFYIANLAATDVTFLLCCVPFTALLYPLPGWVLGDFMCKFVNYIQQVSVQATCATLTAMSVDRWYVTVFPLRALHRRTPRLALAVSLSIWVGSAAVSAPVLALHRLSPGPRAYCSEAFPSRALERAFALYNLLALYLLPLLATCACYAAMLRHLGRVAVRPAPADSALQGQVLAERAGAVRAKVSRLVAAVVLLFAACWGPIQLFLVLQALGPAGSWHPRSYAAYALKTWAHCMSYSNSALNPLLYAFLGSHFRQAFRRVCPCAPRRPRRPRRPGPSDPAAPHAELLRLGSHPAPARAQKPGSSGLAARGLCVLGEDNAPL
UniProt O00425: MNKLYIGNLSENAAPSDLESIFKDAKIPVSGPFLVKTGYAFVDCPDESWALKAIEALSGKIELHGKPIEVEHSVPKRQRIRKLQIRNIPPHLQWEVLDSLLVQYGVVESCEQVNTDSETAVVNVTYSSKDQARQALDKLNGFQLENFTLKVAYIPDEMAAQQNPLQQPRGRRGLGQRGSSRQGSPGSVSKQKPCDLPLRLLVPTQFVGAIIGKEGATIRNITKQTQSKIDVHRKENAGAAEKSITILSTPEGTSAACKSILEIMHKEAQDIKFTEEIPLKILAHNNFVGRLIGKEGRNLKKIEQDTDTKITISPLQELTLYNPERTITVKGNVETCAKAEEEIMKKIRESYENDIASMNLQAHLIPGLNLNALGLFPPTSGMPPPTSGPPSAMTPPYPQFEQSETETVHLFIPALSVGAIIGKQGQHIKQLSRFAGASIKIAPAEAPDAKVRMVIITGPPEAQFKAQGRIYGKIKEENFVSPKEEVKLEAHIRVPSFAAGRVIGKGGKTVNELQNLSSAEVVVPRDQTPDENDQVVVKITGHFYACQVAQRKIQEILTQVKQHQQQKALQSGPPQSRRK
UniProt Q9Y6M1: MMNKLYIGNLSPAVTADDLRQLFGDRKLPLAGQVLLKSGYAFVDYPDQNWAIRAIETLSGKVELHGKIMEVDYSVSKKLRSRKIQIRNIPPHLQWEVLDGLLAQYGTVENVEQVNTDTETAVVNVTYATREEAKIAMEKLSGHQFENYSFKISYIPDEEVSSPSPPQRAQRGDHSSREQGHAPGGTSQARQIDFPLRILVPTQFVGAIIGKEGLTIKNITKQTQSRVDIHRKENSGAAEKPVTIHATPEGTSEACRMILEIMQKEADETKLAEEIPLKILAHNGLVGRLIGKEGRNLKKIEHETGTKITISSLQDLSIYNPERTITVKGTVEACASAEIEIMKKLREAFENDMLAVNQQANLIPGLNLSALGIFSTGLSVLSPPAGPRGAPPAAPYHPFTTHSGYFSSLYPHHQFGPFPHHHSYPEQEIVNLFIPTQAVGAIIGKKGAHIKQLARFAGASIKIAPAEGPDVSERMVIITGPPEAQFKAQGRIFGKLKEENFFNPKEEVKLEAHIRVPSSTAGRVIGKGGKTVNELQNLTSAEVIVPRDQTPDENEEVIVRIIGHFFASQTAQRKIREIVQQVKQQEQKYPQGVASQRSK
UniProt Q9Y508: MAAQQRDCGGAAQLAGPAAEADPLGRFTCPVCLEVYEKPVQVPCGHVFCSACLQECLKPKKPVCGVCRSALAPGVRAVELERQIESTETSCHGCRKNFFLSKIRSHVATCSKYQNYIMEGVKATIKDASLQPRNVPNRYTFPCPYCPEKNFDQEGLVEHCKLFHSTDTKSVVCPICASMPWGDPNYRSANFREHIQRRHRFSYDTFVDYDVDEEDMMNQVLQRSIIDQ
UniProt P11940: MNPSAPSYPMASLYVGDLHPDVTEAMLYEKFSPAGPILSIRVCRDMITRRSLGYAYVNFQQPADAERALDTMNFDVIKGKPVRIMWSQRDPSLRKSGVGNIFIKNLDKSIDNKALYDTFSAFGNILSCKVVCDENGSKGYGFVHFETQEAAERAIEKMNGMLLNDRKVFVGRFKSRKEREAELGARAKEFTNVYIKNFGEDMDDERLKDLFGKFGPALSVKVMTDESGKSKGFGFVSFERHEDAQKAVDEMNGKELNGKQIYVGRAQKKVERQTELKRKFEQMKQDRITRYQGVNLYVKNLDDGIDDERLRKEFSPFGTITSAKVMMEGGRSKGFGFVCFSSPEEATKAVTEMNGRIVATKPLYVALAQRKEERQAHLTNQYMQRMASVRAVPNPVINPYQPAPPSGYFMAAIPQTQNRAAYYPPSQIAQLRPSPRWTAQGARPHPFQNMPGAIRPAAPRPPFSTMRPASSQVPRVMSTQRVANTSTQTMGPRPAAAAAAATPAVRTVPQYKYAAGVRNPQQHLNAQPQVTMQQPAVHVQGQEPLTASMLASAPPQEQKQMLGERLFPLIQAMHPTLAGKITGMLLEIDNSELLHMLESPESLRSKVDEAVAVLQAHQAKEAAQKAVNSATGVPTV

The record followed here is PMC10243807.

First the molecules themselves.
T1: MKRN3 with N-terminal or C-terminal FLAG and HA tags (UniProt Q13064)
T1 sequence: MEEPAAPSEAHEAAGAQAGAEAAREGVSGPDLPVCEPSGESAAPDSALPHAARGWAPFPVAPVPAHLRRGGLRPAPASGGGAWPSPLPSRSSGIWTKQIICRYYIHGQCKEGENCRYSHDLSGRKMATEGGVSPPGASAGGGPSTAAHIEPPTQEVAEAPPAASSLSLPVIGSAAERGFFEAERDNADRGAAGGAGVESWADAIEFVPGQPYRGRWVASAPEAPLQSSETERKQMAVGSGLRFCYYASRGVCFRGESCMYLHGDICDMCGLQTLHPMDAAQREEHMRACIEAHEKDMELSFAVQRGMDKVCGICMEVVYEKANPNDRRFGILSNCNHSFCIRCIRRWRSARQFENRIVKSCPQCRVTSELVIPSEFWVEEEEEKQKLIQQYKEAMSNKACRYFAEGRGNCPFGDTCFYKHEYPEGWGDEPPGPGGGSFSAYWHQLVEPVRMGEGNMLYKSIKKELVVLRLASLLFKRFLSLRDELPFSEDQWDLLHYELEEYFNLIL

B1: WD repeat-containing protein 11, endogenous (protein, UniProt Q9BZH6 1-1224)
chain: MLPYTVNFKVSARTLTGALNAHNKAAVDWGWQGLIAYGCHSLVVVIDSITAQTLQVLEKHKADVVKVKWARENYHHNIGSPYCLRLASADVNGKIIVWDVAAGVAQCEIQEHAKPIQDVQWLWNQDASRDLLLAIHPPNYIVLWNADTGTKLWKKSYADNILSFSFDPFDPSHLTLLTSEGIVFISDFSPSKPPSGPGKKVYISSPHSSPAHNKLATATGAKKALNKVKILITQEKPSAEFITLNDCLQLAYLPSKRNHMLLLYPREILILDLEVNQTVGVIAIERTGVPFLQVIPCFQRDGLFCLHENGCITLRVRRSYNNIFTTSNEEPDPDPVQELTYDLRSQCDAIRVTKTVRPFSMVCCPVNENAAALVVSDGRVMIWELKSAVCNRNSRNSSSGVSPLYSPVSFCGIPVGVLQNKLPDLSLDNMIGQSAIAGEEHPRGSILREVHLKFLLTGLLSGLPAPQFAIRMCPPLTTKNIKMYQPLLAVGTSNGSVLVYHLTSGLLHKELSIHSCEVKGIEWTSLTSFLSFATSTPNNMGLVRNELQLVDLPTGRSIAFRGERGNDESAIEMIKVSHLKQYLAVVFRDKPLELWDVRTCTLLREMSKNFPTITALEWSPSHNLKSLRKKQLATREAMARQTVVSDTELSIVESSVISLLQEAESKSELSQNISAREHFVFTDIDGQVYHLTVEGNSVKDSARIPPDGSMGSITCIAWKGDTLVLGDMDGNLNFWDLKGRVSRGIPTHRSWVRKIRFAPGKGNQKLIAMYNDGAEVWDTKEVQMVSSLRSGRNVTFRILDVDWCTSDKVILASDDGCIRVLEMSMKSACFRMDEQELTEPVWCPYLLVPRASLALKAFLLHQPWNGQYSLDISHVDYPENEEIKNLLQEQLNSLSNDIKKLLLDPEFTLLQRCLLVSRLYGDESELHFWTVAAHYLHSLSQEKSASTTAPKEAAPRDKLSNPLDICYDVLCENAYFQKFQLERVNLQEVKRSTYDHTRKCTDQLLLLGQTDRAVQLLLETSADNQHYYCDSLKACLVTTVTSSGPSQSTIKLVATNMIANGKLAEGVQLLCLIDKAADACRYLQTYGEWNRAAWLAKVRLNPEECADVLRRWVDHLCSPQVNQKSKALLVLLSLGCFFSVAETLHSMRYFDRAALFVEACLKYGAFEVTEDTEKLITAIYADYARSLKNLGFKQGAVLFASKAGAAGKDLLNELESPKEEPIEE

The target of one assay is T1, MKRN3 with N-terminal or C-terminal FLAG and HA tags. The assay can be described thus: affinity purification with mass spectrometry; lysates of HEK293 or SH-SY5Y cells transfected with N- or C-terminally FLAG-HA-tagged MKRN3, with or without bortezomib; IP on immobilized anti-HA resin overnight at 4°C, elution with HA peptide, LC-MS/MS, hits filtered with CompPASS (HCIPs).
As to B1, the binding entry is “binds”.

Another assay shares this target. Described as above. The source holds these as a separate data set.
For “KISS1R, endogenous (from UniProt Q969F8 1-398) (receptor)”, the binding entry is “binds”.

Take “IGF2BP3, endogenous (from UniProt O00425 1-579)”: the binding entry is given as “binds”.

With “IGF2BP2, endogenous (from UniProt Q9Y6M1 1-599)”, the binding result is recorded as “binds”.

For “E3 ubiquitin-protein ligase RNF114, endogenous (from UniProt Q9Y508 1-228)”, the binding entry was “binds”.

Regarding “PABPC1, endogenous (from UniProt P11940 1-636)”, the binding result is recorded as “binds”.
